Experimental findings from publication PMC5385604 are described below.

No constants are given. Whether binding was seen depends on the method and setting. In cells and extracts the contact can be indirect. Binding can be weak; no strength is given. For part of these data: Where a sequence is shown, tags or fusion partners need not be part of it.

Test [1] has as its target T1, full-length myc-tagged Gpsm2^FL (UniProt Q8VDU0).
T1 sequence: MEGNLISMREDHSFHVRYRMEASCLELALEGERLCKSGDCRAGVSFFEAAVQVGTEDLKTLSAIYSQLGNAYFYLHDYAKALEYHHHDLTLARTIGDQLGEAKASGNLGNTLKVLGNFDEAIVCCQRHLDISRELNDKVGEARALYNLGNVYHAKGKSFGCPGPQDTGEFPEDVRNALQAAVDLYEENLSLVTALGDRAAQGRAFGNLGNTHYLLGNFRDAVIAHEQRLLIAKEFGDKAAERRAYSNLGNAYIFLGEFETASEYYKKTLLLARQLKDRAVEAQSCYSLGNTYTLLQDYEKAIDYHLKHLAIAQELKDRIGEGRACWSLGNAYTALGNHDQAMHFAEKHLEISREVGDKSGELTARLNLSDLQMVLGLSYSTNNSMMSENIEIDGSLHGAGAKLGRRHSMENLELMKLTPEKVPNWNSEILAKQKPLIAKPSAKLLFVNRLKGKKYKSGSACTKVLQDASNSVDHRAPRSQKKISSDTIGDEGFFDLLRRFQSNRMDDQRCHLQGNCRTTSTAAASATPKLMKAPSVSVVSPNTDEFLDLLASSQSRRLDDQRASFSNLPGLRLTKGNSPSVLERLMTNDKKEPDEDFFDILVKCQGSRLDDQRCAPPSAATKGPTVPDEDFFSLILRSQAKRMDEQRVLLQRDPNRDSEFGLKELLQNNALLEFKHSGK
Put plainly: co-IP; HEK293T transfected (polyethylenimine), harvested after 48 h; extracts solubilized with Triton-X-100 and protease inhibitors; lysates incubated overnight with protein A/G or A resin and anti-myc, anti-GFP or rabbit IgG; immunoblot.

For test [2], the target named is green fluorescent protein (GFP)–whirlin. The test is described as above.
Test [3] addresses Gpsm2 (endogenous, rat hippocampus) (rat (endogenous in hippocampus)). Put plainly: co-IP; endogenous; 10 hippocampi of P21 rats solubilized with 1% DOC and 1% Triton-X-100 in 50 mM Tris pH 8; pre-immune or Gpsm2 serum with protein A resin overnight; blot with anti-whirlin and anti-Gpsm2.

For the molecule untagged whirlin, the binding entry in test [1] was “binds”.

B1: full-length myc-tagged Gpsm2^FL (protein, UniProt Q8VDU0 1-679)
chain: T1 sequence
B1: in test [2], the binding result is reported as “binds”.

B2: endogenous whirlin (rat hippocampus) (protein, UniProt Q810W9 1-920)
chain: MNAQLDGLSVSSSSTGSLGSAAAAAGGGGGAGLRLLSANVRQLHQALTALLSEPEREQFTHCLNAYHARRNVFDLVRTLRVLLDSPVKRRLLPMLRLVIPRSDQLLFDQYTAEGLYLPATTPYRQPAWAAPDGAGPGEVRLVSLRRAKAHEGLGFSIRGGSEHGVGIYVSLVEPGSLAEKEGLRVGDQILRVNDKSLARVTHAEAVKALKGSKKLVLSVYSAGRIPGGYVTNHIYTWVDPQGRSTSPPSSLPHGSTLRQHEDDRRSALHLLQSGDEKKVNLVLGDGRSLGLTIRGGAEYGLGIYITGVDPGSEAESSGLKVGDQILEVNGRSFLSILHDEAVKLLKSSRHLILTVKDVGRLPHARTTVDQTKWIASSRIGESITNSAGFPGDLTEEGTNKPGFYKGPAGSQVTLSSLGNQTRALLDDQARHLLTEQERATMMYYLDQYRGGTISVEALVMALFELLNTHAKFSLLSEVRGIISPQDLDRFDHLVLRREIESMKARQPPGPGVGDTYSMVSYSDTGSSTGSHGTSTTVSSARERLLWLIDLMENTLDLEGTCETTQGSTNALPDVSVDDVRSPSEDLPGIKPPPPPPPLAQGHDRLLGQTRKPVREDSAPLSSAAHSGIVFSAPRNRSPPPPPGIAPTPTPGPSSARDSPSSPIYASISHANPSSRKPLDTHLALVNQHPIGPFPRVQSPPHLKSPPAEAPGAGACLPPPSPSEHADAMGANQHFVLVEVHRPDSEPDVNEVRALPQTRTASTLSQLSDSGQTLSEDSGVDAGETEASTSGRGRQTANTKNKNGKELPQTERTTEGANKPPGLLEPTSTLIRVRKSAATLGIAIEGGANTRQPLPRIVTIQRGGSAHNCGQLKVGHVILEVNGQTLRGKEHREAARVIAEAFKTKERDYIDFLVTEFNVML
Regarding B2, the binding result in test [3] is “binds”.
